Assay [1] addresses His-tagged mouse Wnt3a (mouse) (UniProt P27467). Briefly: competition co-immunoprecipitation; competitor of V3Nter for Wnt3a.
Assay [2] has the same target. Briefly: competition co-immunoprecipitation at 0, 50 or 100 ug/ml RH3; competitor of V3Nter for Wnt3a.

The chains behind the UniProt entries cited, without tags or fusion partners. Residues count along the entry.
UniProt P27467, residues 19-352: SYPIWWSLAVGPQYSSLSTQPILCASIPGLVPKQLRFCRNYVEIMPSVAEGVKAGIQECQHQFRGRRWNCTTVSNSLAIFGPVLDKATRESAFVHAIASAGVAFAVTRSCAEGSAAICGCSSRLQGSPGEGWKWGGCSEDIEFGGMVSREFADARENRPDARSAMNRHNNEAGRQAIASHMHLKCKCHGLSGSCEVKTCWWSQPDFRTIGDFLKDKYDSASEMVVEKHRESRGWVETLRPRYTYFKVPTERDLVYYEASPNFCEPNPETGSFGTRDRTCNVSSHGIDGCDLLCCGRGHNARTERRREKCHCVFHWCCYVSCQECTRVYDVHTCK

These are yes or no findings as the source states them, for the method shown. Binding seen in cells or lysates may run through a third protein. Some entries that bind do so weakly or less than the wild type.

B1: synthetic peptide RH3 (peptide)
peptide: AWGRFLHTNCHPFLA
In the case of B1, the binding entry in assay [1] and in assay [2] was “binds” each time.

For the origin of these results see patent US20100316616A1.
